From publication PMC10323252
No constants are given. Whether binding was seen depends on the method and setting. A result given as binding can be weak or reduced; the word gives no strength. Sequences can lack the tags named with a protein.

Sequences of proteins named here, by UniProt entry; tags and fusion partners are left off. A change or cut given only in a name is not applied to a line headed by its entry.
UniProt P05556: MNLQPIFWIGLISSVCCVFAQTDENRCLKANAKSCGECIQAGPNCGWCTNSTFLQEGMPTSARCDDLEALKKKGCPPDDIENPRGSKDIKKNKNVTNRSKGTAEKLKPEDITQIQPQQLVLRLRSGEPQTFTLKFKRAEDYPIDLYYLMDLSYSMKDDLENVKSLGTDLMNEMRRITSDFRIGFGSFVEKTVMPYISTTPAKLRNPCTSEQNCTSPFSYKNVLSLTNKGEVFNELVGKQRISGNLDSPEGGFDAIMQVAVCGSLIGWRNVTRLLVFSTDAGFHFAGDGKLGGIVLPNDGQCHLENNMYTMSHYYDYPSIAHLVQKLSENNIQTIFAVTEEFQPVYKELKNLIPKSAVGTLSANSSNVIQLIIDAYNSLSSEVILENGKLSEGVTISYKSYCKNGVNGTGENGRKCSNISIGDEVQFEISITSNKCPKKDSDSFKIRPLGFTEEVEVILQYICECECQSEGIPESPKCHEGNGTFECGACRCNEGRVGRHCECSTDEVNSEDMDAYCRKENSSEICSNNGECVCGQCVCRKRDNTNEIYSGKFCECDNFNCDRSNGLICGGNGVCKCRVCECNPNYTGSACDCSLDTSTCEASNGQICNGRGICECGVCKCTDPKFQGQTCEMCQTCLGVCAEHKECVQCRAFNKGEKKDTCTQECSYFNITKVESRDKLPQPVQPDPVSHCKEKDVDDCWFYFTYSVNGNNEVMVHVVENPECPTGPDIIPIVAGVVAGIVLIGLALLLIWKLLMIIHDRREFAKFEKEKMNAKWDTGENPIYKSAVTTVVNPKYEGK

Target: GST–β1 integrin cytoplasmic tail truncations (UniProt P05556)
Experiment: pull-down; GST-β1 integrin cytoplasmic tail truncations on glutathione-agarose beads, incubated with His-Rab25 loaded with GTPγS for 2 h at 4°C; SDS-PAGE, Coomassie Blue staining or western blotting; both purified

binding: binds
B1: His–Rab25 GTPγS (protein, UniProt P57735 1-213)
chain: MGNGTEEDYNFVFKVVLIGESGVGKTNLLSRFTRNEFSHDSRTTIGVEFSTRTVMLGTAAVKAQIWDTAGLERYRAITSAYYRGAVGALLVFDLTKHQTYAVVERWLKELYDHAEATIVVMLVGNKSDLSQAREVPTEEARMFAENNGLLFLETSALDSTNVELAFETVLKEIFAKVSKQRQNSIRTNAITLGSAQAGQEPGPGEKRACCISL
